The mice bore no tumour; each value counts animals alive of those treated. Counts of survivors are from the toxicity check (mostly the fifth day) where no day follows; animals may have died later. Schedules are NCI's codes, taken here to give the interval after Q, in days (D) or hours (H), and the number of doses after X. Some entries were tested several times; the results are listed from low to high.
System: CD2F1 mice, nontumored, toxicity/survival
Assay: NCI In Vivo Anticancer Drug Screen. Data for tumor model Nontumored Animals (Toxicity Test) in CD2F1 (CDF1) mice

For `N[C@H](C(=O)O)[C@@H]1CC(Cl)=NO1`, the survivor count (dose: 1.5 mg/kg/injection, schedule: Q01DX009 (ip), vehicle: saline) was 10 of 10, the survivor count (dose: 3.0 mg/kg/injection, schedule: Q01DX009 (ip), vehicle: saline) was 10 of 10 and 4 of 4 and the survivor count (dose: 6.0 mg/kg/injection, schedule: Q01DX009 (ip), vehicle: saline) was 10 of 10 and 4 of 4. The survivor count (dose: 12.0 mg/kg/injection, schedule: Q01DX009 (ip), vehicle: saline) was 10 of 10 and 4 of 4 and the survivor count (dose: 24.0 mg/kg/injection, schedule: Q01DX009 (ip), vehicle: saline) was 4 of 4.

With `O=C1OC(C(O)CO)C(O)=C1O` (stereo not drawn) the survivor count (dose: 800.0 mg/kg/injection, schedule: Q01DX009 (ip), vehicle: saline) was 4 of 4, the survivor count (dose: 1200.0 mg/kg/injection, schedule: Q01DX009 (ip), vehicle: saline) was 4 of 4 and the survivor count (dose: 1600.0 mg/kg/injection, schedule: Q01DX009 (ip), vehicle: saline) was 4 of 4.

In the case of `CN(Cc1cnc2nc(N)nc(N)c2n1)c1ccc(C(=O)N[C@@H](CCC(=O)O)C(=O)O)cc1`, the survivor count (dose: 0.06 mg/kg/injection, schedule: Q01DX009 (ip), vehicle: sodium bicarbonate) is reported as 8 of 8, the survivor count (dose: 0.13 mg/kg/injection, schedule: Q01DX009 (ip), vehicle: saline) is reported as 8 of 8 and the survivor count (dose: 0.13 mg/kg/injection, schedule: Q01DX009 (ip), vehicle: sodium bicarbonate) is reported as 8 of 8. The survivor count (dose: 0.13 mg/kg/injection, schedule: Q03HX024 (ip), vehicle: saline) was 8 of 8, the survivor count (dose: 0.25 mg/kg/injection, schedule: Q01DX009 (ip), vehicle: saline) was 8 of 8 and the survivor count (dose: 0.25 mg/kg/injection, schedule: Q01DX009 (ip), vehicle: sodium bicarbonate) was 8 of 8. The survivor count (dose: 0.25 mg/kg/injection, schedule: Q03HX008 (ip), vehicle: saline) was 8 of 8, the survivor count (dose: 0.25 mg/kg/injection, schedule: Q03HX016 (ip), vehicle: saline) was 8 of 8 and the survivor count (dose: 0.25 mg/kg/injection, schedule: Q03HX024 (ip), vehicle: saline) was 8 of 8. For the same molecule, the survivor count (dose: 0.5 mg/kg/injection, schedule: Q01DX009 (ip), vehicle: saline) was 8 of 8, the survivor count (dose: 0.5 mg/kg/injection, schedule: Q01DX009 (ip), vehicle: sodium bicarbonate) was 8 of 8 and the survivor count (dose: 0.5 mg/kg/injection, schedule: Q03HX008 (ip), vehicle: saline) was 8 of 8. The survivor count (dose: 0.5 mg/kg/injection, schedule: Q03HX016 (ip), vehicle: saline) was 3 of 8, the survivor count (dose: 0.5 mg/kg/injection, schedule: Q03HX024 (ip), vehicle: saline) was 8 of 8 and the survivor count (dose: 0.75 mg/kg/injection, schedule: Q01DX009 (ip), vehicle: sodium bicarbonate) was 4 of 4. For the same molecule, the survivor count (dose: 0.9 mg/kg/injection, schedule: Q01DX009 (ip), vehicle: sodium bicarbonate) was 10 of 10, the survivor count (dose: 1.0 mg/kg/injection, schedule: Q01DX009 (ip), vehicle: saline) was 8 of 8 and the survivor count (dose: 1.0 mg/kg/injection, schedule: Q01DX009 (ip), vehicle: sodium bicarbonate) was 4 of 4 and 8 of 8. For the same molecule, the survivor count (dose: 1.0 mg/kg/injection, schedule: Q03HX008 (ip), vehicle: saline) was 3 of 8, the survivor count (dose: 1.0 mg/kg/injection, schedule: Q03HX016 (ip), vehicle: saline) was 1 of 8 and the survivor count (dose: 1.0 mg/kg/injection, schedule: Q03HX024 (ip), vehicle: saline) was 8 of 8. For the same molecule, the survivor count (dose: 1.3 mg/kg/injection, schedule: Q01DX009 (ip), vehicle: sodium bicarbonate) was 10 of 10, the survivor count (dose: 1.5 mg/kg/injection, schedule: Q01DX009 (ip), vehicle: sodium bicarbonate) was 4 of 4 and the survivor count (dose: 2.0 mg/kg/injection, schedule: Q01DX009 (ip), vehicle: saline) was 8 of 8. For the same molecule, the survivor count (dose: 2.0 mg/kg/injection, schedule: Q01DX009 (ip), vehicle: sodium bicarbonate) was 2 of 3, 10 of 10, 8 of 8, the survivor count (dose: 2.0 mg/kg/injection, schedule: Q03HX008 (ip), vehicle: saline) was 4 of 8 and the survivor count (dose: 2.0 mg/kg/injection, schedule: Q03HX016 (ip), vehicle: saline) was 1 of 8. For the same molecule, the survivor count (dose: 3.0 mg/kg/injection, schedule: Q01DX009 (ip), vehicle: sodium bicarbonate) was 10 of 10 and 4 of 4, the survivor count (dose: 3.5 mg/kg/injection, schedule: Q01DX009 (ip), vehicle: sodium bicarbonate) was 10 of 10 and 9 of 9 and the survivor count (dose: 4.0 mg/kg/injection, schedule: Q01DX009 (ip), vehicle: saline) was 7 of 8. For the same molecule, the survivor count (dose: 4.0 mg/kg/injection, schedule: Q01DX009 (ip), vehicle: sodium bicarbonate) was 4 of 4 and 8 of 8, the survivor count (dose: 4.0 mg/kg/injection, schedule: Q04DX003 (ip), vehicle: saline) was 8 of 8 and the survivor count (dose: 5.0 mg/kg/injection, schedule: Q04DX003 (ip), vehicle: sodium bicarbonate) was 4 of 4. For the same molecule, the survivor count (dose: 5.4 mg/kg/injection, schedule: Q04DX002 (ip), vehicle: sodium bicarbonate) was 4 of 4, the survivor count (dose: 5.4 mg/kg/injection, schedule: Q04DX003 (ip), vehicle: sodium bicarbonate) was 4 of 4 and the survivor count (dose: 6.0 mg/kg/injection, schedule: Q01DX009 (ip), vehicle: sodium bicarbonate) was 0 of 2. The survivor count (dose: 8.0 mg/kg/injection, schedule: Q01DX001 (ip), vehicle: saline) was 8 of 8, the survivor count (dose: 8.0 mg/kg/injection, schedule: Q01DX009 (ip), vehicle: sodium bicarbonate) was 4 of 4 and 8 of 8 and the survivor count (dose: 8.0 mg/kg/injection, schedule: Q04DX003 (ip), vehicle: saline) was 8 of 8. For the same molecule, the survivor count (dose: 8.0 mg/kg/injection, schedule: Q08DX002 (ip), vehicle: saline) was 8 of 8, the survivor count (dose: 9.0 mg/kg/injection, schedule: Q04DX002 (ip), vehicle: sodium bicarbonate) was 4 of 4 and the survivor count (dose: 9.0 mg/kg/injection, schedule: Q04DX003 (ip), vehicle: sodium bicarbonate) was 4 of 4 and 5 of 5. For the same molecule, the survivor count (dose: 10.0 mg/kg/injection, schedule: Q04DX003 (ip), vehicle: sodium bicarbonate) was 4 of 4, the survivor count (dose: 14.4 mg/kg/injection, schedule: Q01DX001 (ip), vehicle: sodium bicarbonate) was 4 of 4 and the survivor count (dose: 15.0 mg/kg/injection, schedule: Q04DX002 (ip), vehicle: sodium bicarbonate) was 4 of 4. For the same molecule, the survivor count (dose: 15.0 mg/kg/injection, schedule: Q04DX003 (ip), vehicle: sodium bicarbonate) was 4 of 4 and 5 of 5, the survivor count (dose: 16.0 mg/kg/injection, schedule: Q01DX001 (ip), vehicle: saline) was 6 of 8 and the survivor count (dose: 16.0 mg/kg/injection, schedule: Q04DX003 (ip), vehicle: saline) was 8 of 8. For the same molecule, the survivor count (dose: 16.0 mg/kg/injection, schedule: Q08DX002 (ip), vehicle: saline) was 7 of 8, the survivor count (dose: 20.0 mg/kg/injection, schedule: Q04DX003 (ip), vehicle: sodium bicarbonate) was 4 of 4 and the survivor count (dose: 24.0 mg/kg/injection, schedule: Q01DX001 (ip), vehicle: sodium bicarbonate) was 4 of 4. For the same molecule, the survivor count (dose: 25.0 mg/kg/injection, schedule: Q04DX002 (ip), vehicle: sodium bicarbonate) was 4 of 4, the survivor count (dose: 25.0 mg/kg/injection, schedule: Q04DX003 (ip), vehicle: sodium bicarbonate) was 4 of 4 and 5 of 5 and the survivor count (dose: 30.0 mg/kg/injection, schedule: Q01DX001 (ip), vehicle: sodium bicarbonate) was 4 of 4. For the same molecule, the survivor count (dose: 32.0 mg/kg/injection, schedule: Q01DX001 (ip), vehicle: saline) was 6 of 8, the survivor count (dose: 32.0 mg/kg/injection, schedule: Q04DX003 (ip), vehicle: saline) was 6 of 8 and 8 of 8 and the survivor count (dose: 32.0 mg/kg/injection, schedule: Q08DX002 (ip), vehicle: saline) was 7 of 8. For the same molecule, the survivor count (dose: 40.0 mg/kg/injection, schedule: Q01DX001 (ip), vehicle: sodium bicarbonate) was 4 of 4, the survivor count (dose: 40.0 mg/kg/injection, schedule: Q04DX003 (ip), vehicle: sodium bicarbonate) was 4 of 4 and the survivor count (dose: 41.6 mg/kg/injection, schedule: Q04DX003 (ip), vehicle: sodium bicarbonate) was 2 of 3. The survivor count (dose: 41.7 mg/kg/injection, schedule: Q04DX003 (ip), vehicle: sodium bicarbonate) was 5 of 5, the survivor count (dose: 43.0 mg/kg/injection, schedule: Q01DX001 (ip), vehicle: sodium bicarbonate) was 4 of 4 and the survivor count (dose: 60.0 mg/kg/injection, schedule: Q01DX001 (ip), vehicle: sodium bicarbonate) was 4 of 4. For the same molecule, the survivor count (dose: 64.0 mg/kg/injection, schedule: Q01DX001 (ip), vehicle: saline) was 5 of 8 and 6 of 8, the survivor count (dose: 64.0 mg/kg/injection, schedule: Q04DX003 (ip), vehicle: saline) was 6 of 8 and 8 of 8 and the survivor count (dose: 64.0 mg/kg/injection, schedule: Q08DX002 (ip), vehicle: saline) was 3 of 8 and 6 of 8. The survivor count (dose: 66.7 mg/kg/injection, schedule: Q01DX001 (ip), vehicle: sodium bicarbonate) was 4 of 4, the survivor count (dose: 67.0 mg/kg/injection, schedule: Q01DX001 (ip), vehicle: sodium bicarbonate) was 4 of 4 and the survivor count (dose: 72.0 mg/kg/injection, schedule: Q01DX001 (ip), vehicle: sodium bicarbonate) was 2 of 3 and 4 of 4. For the same molecule, the survivor count (dose: 112.0 mg/kg/injection, schedule: Q01DX001 (ip), vehicle: sodium bicarbonate) was 4 of 4, the survivor count (dose: 120.0 mg/kg/injection, schedule: Q01DX001 (ip), vehicle: sodium bicarbonate) was 4 of 4 and the survivor count (dose: 128.0 mg/kg/injection, schedule: Q01DX001 (ip), vehicle: saline) was 0 of 8 and 5 of 8. The survivor count (dose: 128.0 mg/kg/injection, schedule: Q04DX003 (ip), vehicle: saline) was 3 of 8, the survivor count (dose: 128.0 mg/kg/injection, schedule: Q08DX002 (ip), vehicle: saline) was 0 of 8 and 3 of 8 and the survivor count (dose: 200.0 mg/kg/injection, schedule: Q01DX001 (ip), vehicle: sodium bicarbonate) was 2 of 3 and 4 of 4. For the same molecule, the survivor count (dose: 240.0 mg/kg/injection, schedule: Q01DX001 (ip), vehicle: sodium bicarbonate) was 2 of 3, the survivor count (dose: 256.0 mg/kg/injection, schedule: Q01DX001 (ip), vehicle: saline) was 2 of 8 and the survivor count (dose: 256.0 mg/kg/injection, schedule: Q08DX002 (ip), vehicle: saline) was 3 of 8. For the same molecule, the survivor count (dose: 512.0 mg/kg/injection, schedule: Q01DX001 (ip), vehicle: saline) was 1 of 8 and the survivor count (dose: 512.0 mg/kg/injection, schedule: Q08DX002 (ip), vehicle: saline) was 2 of 8.
